# Measurements taken from the supplement of paper PMC10032668.
# Protein sequences, listed by entry. Tags and fused reporters are not part of them.
# COX6C, P09669, UniProt P09669, whole entry: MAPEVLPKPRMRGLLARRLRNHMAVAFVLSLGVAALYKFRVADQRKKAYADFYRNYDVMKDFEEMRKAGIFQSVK
# NDUFV1, P49821, UniProt P49821, whole entry: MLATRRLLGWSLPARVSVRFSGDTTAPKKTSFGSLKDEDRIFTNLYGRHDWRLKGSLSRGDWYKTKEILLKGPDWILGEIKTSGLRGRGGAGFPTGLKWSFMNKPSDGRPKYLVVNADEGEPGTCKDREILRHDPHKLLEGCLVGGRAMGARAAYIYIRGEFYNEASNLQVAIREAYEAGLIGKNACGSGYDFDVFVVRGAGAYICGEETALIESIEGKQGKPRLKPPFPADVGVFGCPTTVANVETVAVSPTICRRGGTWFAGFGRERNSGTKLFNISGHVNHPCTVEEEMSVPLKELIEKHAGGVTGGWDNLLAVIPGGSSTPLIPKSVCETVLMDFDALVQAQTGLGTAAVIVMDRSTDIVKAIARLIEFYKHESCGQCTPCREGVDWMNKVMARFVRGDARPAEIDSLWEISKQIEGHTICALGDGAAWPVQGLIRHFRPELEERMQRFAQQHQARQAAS
# PFDN6, O15212, UniProt O15212, whole entry: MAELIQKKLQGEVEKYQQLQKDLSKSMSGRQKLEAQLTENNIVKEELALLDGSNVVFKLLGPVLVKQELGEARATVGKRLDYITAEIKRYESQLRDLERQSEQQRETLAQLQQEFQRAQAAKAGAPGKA
# RAB7A, P51149, UniProt P51149, whole entry: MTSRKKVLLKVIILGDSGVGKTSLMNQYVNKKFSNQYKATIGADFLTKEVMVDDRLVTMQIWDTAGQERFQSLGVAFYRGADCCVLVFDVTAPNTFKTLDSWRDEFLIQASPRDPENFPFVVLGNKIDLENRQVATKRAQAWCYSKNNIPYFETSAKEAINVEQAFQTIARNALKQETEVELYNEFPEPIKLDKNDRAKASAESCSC
# STAT3, P40763, UniProt P40763, whole entry: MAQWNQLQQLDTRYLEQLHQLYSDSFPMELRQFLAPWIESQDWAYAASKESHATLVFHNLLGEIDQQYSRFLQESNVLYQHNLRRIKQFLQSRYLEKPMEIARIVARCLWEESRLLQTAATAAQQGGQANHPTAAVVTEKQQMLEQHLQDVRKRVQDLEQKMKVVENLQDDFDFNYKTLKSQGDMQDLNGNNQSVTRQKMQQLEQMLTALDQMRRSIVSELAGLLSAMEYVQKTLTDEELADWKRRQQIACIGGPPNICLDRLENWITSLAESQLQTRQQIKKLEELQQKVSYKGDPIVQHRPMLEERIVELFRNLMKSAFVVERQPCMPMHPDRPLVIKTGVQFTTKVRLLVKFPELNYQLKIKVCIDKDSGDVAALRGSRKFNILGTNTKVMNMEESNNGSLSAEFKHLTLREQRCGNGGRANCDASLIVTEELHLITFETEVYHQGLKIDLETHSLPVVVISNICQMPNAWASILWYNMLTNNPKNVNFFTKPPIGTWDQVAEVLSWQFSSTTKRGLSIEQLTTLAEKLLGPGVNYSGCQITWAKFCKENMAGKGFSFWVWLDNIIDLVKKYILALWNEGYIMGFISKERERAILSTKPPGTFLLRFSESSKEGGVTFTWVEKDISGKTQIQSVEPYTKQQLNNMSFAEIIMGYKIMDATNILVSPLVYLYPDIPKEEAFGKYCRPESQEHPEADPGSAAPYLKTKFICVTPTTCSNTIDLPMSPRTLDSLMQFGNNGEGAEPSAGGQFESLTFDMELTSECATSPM
# PABPC4, Q13310, UniProt Q13310, whole entry: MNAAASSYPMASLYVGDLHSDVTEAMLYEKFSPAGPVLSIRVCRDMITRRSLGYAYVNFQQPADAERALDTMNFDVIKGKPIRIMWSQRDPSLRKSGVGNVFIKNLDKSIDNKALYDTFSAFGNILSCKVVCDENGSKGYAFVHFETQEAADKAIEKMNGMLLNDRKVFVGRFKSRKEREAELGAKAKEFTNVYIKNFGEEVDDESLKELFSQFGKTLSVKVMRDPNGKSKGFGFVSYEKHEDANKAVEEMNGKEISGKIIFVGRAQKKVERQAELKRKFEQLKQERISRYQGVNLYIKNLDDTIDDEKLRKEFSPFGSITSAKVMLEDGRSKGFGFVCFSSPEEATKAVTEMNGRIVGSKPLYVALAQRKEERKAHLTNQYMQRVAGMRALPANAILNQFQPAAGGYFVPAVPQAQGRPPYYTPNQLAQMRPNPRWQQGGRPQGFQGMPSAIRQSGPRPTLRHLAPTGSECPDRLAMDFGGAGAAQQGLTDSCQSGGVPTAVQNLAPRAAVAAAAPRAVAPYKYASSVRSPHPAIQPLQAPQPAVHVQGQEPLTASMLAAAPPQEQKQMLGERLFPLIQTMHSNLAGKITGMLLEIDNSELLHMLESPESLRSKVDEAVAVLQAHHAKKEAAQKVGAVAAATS
# PSMC3, P17980, UniProt P17980, whole entry: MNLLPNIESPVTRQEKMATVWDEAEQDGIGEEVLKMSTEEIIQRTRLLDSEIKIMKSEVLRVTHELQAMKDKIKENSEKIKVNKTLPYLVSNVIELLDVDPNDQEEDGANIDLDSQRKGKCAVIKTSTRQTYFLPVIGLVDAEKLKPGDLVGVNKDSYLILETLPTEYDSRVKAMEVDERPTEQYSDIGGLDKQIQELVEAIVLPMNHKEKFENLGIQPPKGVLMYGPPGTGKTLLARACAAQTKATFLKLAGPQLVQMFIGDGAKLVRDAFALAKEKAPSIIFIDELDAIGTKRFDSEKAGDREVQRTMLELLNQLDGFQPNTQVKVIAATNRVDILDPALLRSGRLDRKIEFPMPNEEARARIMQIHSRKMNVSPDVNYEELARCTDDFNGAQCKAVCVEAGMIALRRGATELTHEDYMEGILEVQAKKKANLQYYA
# This is one part of the list. Only hits are listed; about a third recur on repeated control peptides.
# What was measured:
# Test in all cases: PRISMA enrichment of interactor (LFQ) in peptide spot vs all other peptide spots (log2 fold change); higher = stronger / more specific binding of the interactor to the peptide
# COPA, P53621 = target: COPA, P53621
# Protocol: (§1)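 PRISMA: 15-aa overlapping tiles (offset 8 aa) of 60 microproteins, plus SOS1/GLUT1 control peptides, were spot-synthesized on cellulose membranes in triplicate. Membranes were incubated with benzonase-treated HEK293T lysate, and bound proteins were identified by LC-MS/MS with LFQ. Enrichment is the log2 fold change of each protein in one spot versus all other spots. Only interactors passing the significance cutoff are listed.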
# NUP160, Q12769 = target: NUP160, Q12769
# Protocol: as §1
# PAICS, P22234 = target: PAICS, P22234
# Protocol: as §1
# RPS17, P08708 = target: RPS17, P08708
# Protocol: as §1
# COX6C, P09669 = target: COX6C, P09669
# Protocol: as §1
# GNL3L, Q9NVN8 = target: GNL3L, Q9NVN8
# Protocol: as §1
# DAP3, P51398 = target: DAP3, P51398
# Protocol: as §1
# DDX5, P17844 = target: DDX5, P17844
# Protocol: as §1
# GMNN, O75496 = target: GMNN, O75496
# Protocol: as §1
# GNPDA1, P46926 = target: GNPDA1, P46926
# Protocol: as §1
# MTX1, Q13505 = target: MTX1, Q13505
# Protocol: as §1
# NDUFV1, P49821 = target: NDUFV1, P49821
# Protocol: as §1
# PDCD5, O14737 = target: PDCD5, O14737
# Protocol: as §1
# PFDN6, O15212 = target: PFDN6, O15212
# Protocol: as §1
# RAB7A, P51149 = target: RAB7A, P51149
# Protocol: as §1
# SEC63, Q9UGP8 = target: SEC63, Q9UGP8
# Protocol: as §1
# STRIP1, Q5VSL9 = target: STRIP1, Q5VSL9
# Protocol: as §1
# CSNK2A2, P19784 = target: CSNK2A2, P19784
# Protocol: as §1
# DDX42, Q86XP3 = target: DDX42, Q86XP3
# Protocol: as §1
# GRPEL1, Q9HAV7 = target: GRPEL1, Q9HAV7
# Protocol: as §1
# MRPS28, Q9Y2Q9 = target: MRPS28, Q9Y2Q9
# Protocol: as §1
# TMEM201, Q5SNT2 = target: TMEM201, Q5SNT2
# Protocol: as §1
# COPE, O14579 = target: COPE, O14579
# Protocol: as §1
# FARSA, Q9Y285 = target: FARSA, Q9Y285
# Protocol: as §1
# HMGA1, P17096 = target: HMGA1, P17096
# Protocol: as §1
# L2HGDH, Q9H9P8 = target: L2HGDH, Q9H9P8
# Protocol: as §1
# MRPS15, P82914 = target: MRPS15, P82914
# Protocol: as §1
# MYO1D, O94832 = target: MYO1D, O94832
# Protocol: as §1
# PABPN1, Q86U42 = target: PABPN1, Q86U42
# Protocol: as §1
# PIGK, Q92643 = target: PIGK, Q92643
# Protocol: as §1
# SPTY2D1, Q68D10 = target: SPTY2D1, Q68D10
# Protocol: as §1
# STAT3, P40763 = target: STAT3, P40763
# Protocol: as §1
# CSNK2A1, P68400 = target: CSNK2A1, P68400
# Protocol: as §1
# ECHS1, P30084 = target: ECHS1, P30084
# Protocol: as §1
# KARS, Q15046 = target: KARS, Q15046
# Protocol: as §1
# PABPC4, Q13310 = target: PABPC4, Q13310
# Protocol: as §1
# PPP1R2, P41236 = target: PPP1R2, P41236
# Protocol: as §1
# PRDX4, Q13162 = target: PRDX4, Q13162
# Protocol: as §1
# PSMC3, P17980 = target: PSMC3, P17980
# Protocol: as §1
# PWWP2A, Q96N64 = target: PWWP2A, Q96N64
# Protocol: as §1
# SF1, Q15637 = target: SF1, Q15637
# Protocol: as §1
# SLC7A6OS, Q96CW6 = target: SLC7A6OS, Q96CW6
# Protocol: as §1
binder,measurement,setting,value
SYSLDVHGGRRTAAG [PVT1],PRISMA enrichment of interactor (log2),"COPA, P53621",4.97
same,PRISMA enrichment of interactor (log2),"NUP160, Q12769",5.08
same,PRISMA enrichment of interactor (log2),"PAICS, P22234",5.87
same,PRISMA enrichment of interactor (log2),"RPS17, P08708",5.91
KPLTPKAKMPKHWSS [NAV2-AS2_2],PRISMA enrichment of interactor (log2),"COX6C, P09669",5.56
same,PRISMA enrichment of interactor (log2),"GNL3L, Q9NVN8",7.14
AGISFIGVHLGTYFL [MKKS_2],PRISMA enrichment of interactor (log2),"DAP3, P51398",6.05
same,PRISMA enrichment of interactor (log2),"DDX5, P17844",4.95
same,PRISMA enrichment of interactor (log2),"GMNN, O75496",4.39
same,PRISMA enrichment of interactor (log2),"GNPDA1, P46926",4.83
same,PRISMA enrichment of interactor (log2),"MTX1, Q13505",4.04
same,PRISMA enrichment of interactor (log2),"NDUFV1, P49821",5.52
same,PRISMA enrichment of interactor (log2),"PDCD5, O14737",4.71
same,PRISMA enrichment of interactor (log2),"PFDN6, O15212",4.24
same,PRISMA enrichment of interactor (log2),"RAB7A, P51149",5.51
same,PRISMA enrichment of interactor (log2),"SEC63, Q9UGP8",5.07
same,PRISMA enrichment of interactor (log2),"STRIP1, Q5VSL9",3.82
LHVEHYTLLFFRILF [HAND2-AS1],PRISMA enrichment of interactor (log2),"CSNK2A2, P19784",4.39
same,PRISMA enrichment of interactor (log2),"DDX42, Q86XP3",6.29
same,PRISMA enrichment of interactor (log2),"GRPEL1, Q9HAV7",4.6
same,PRISMA enrichment of interactor (log2),"MRPS28, Q9Y2Q9",6.71
same,PRISMA enrichment of interactor (log2),"TMEM201, Q5SNT2",6.6
LTTSVRKKVECGDGE [RP11-12K22.1],PRISMA enrichment of interactor (log2),"COPE, O14579",5.4
same,PRISMA enrichment of interactor (log2),"FARSA, Q9Y285",5.01
same,PRISMA enrichment of interactor (log2),"HMGA1, P17096",5.21
same,PRISMA enrichment of interactor (log2),"L2HGDH, Q9H9P8",4.66
same,PRISMA enrichment of interactor (log2),"MRPS15, P82914",5.93
same,PRISMA enrichment of interactor (log2),"MYO1D, O94832",4.47
same,PRISMA enrichment of interactor (log2),"PABPN1, Q86U42",6.13
same,PRISMA enrichment of interactor (log2),"PIGK, Q92643",4.66
same,PRISMA enrichment of interactor (log2),"SPTY2D1, Q68D10",5.33
same,PRISMA enrichment of interactor (log2),"STAT3, P40763",4.52
TRASMEPPLVAGGLS [JHDM1D-AS1],PRISMA enrichment of interactor (log2),"CSNK2A1, P68400",5.5
same,PRISMA enrichment of interactor (log2),"ECHS1, P30084",4.93
same,PRISMA enrichment of interactor (log2),"KARS, Q15046",5.88
same,PRISMA enrichment of interactor (log2),"PABPC4, Q13310",6.34
same,PRISMA enrichment of interactor (log2),"PPP1R2, P41236",5.37
same,PRISMA enrichment of interactor (log2),"PRDX4, Q13162",5.94
same,PRISMA enrichment of interactor (log2),"PSMC3, P17980",5.1
same,PRISMA enrichment of interactor (log2),"PWWP2A, Q96N64",3.9
same,PRISMA enrichment of interactor (log2),"SF1, Q15637",5.85
same,PRISMA enrichment of interactor (log2),"SLC7A6OS, Q96CW6",4.66

# A stretch taken from the entries so far:
binder,measurement,setting,value
AGISFIGVHLGTYFL [MKKS_2],PRISMA enrichment of interactor (log2),"STRIP1, Q5VSL9",3.82
LHVEHYTLLFFRILF [HAND2-AS1],PRISMA enrichment of interactor (log2),"CSNK2A2, P19784",4.39
same,PRISMA enrichment of interactor (log2),"DDX42, Q86XP3",6.29
